Reference: PubChem BioAssay AID2685 (National Center for Advancing Translational Sciences (NCATS), 2010)
The whole screen tested about 320,000 compounds, of which about 2,100 (0.66%) were called active. Inconclusive results, whose numbers are uncertain, are shown with a selection of clear calls. The call rests on the fitted dose curve; in most records, active means well fitted inhibition curve with a large enough effect in the signal ratio, with a control signal flat (not every such curve was filed as active); inconclusive means small, poorly fitted or top-dose-only effect, or effect the other way, or a change in a side signal; inactive means flat fitted curve, though single readings scatter; the % refers to the signal ratio. Potencies beside an inconclusive call are fits to weak or partial responses and may not hold up.

assay: qHTS Assay for Lipid Storage Modulators in Drosophila S3 Cells; settings: BODIPY lipid droplet fluorescence, 18-24 h, cells fed with added oleic acid; lipid storage change, negative = inhibition: at 46.1 µM (top of the series) unless noted
How it was run: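 Drosophila S3 cells loaded with oleic acid (400 uM, as added) and compounds at several concentrations; lipid droplets imaged by 488-nm laser-scanning cytometry, 500–530 nm intensity and object ratio to cell channel. Percent activity normalized to 20 uM Triacsin C.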
On the % scale 0 is the no-effect control and ±100 the full control effect; potency means the concentration at half of the fitted maximal effect.

Structure (SMILES)	lipid storage change, negative = inhibition	Potency
Cc1ccc(SCc2c(C(=O)N/N=C/c3ccoc3)nnn2-c2nonc2N)cc1	inconclusive: 183%	
CCCCN(CC)C(=O)c1oc2ccc(S(=O)(=O)N3CCCC3)cc2c1C		active: 11.6 µM
CCCc1ccc2oc(C(=O)N(Cc3nccn3C)C(C)C)c(C)c2c1	inconclusive: -48.3%	
O=C(COC(=O)CNS(=O)(=O)c1ccc(Br)cc1Cl)NC1CC1	inconclusive: -0.442%	
O=C(CSc1cn(CCNC(=O)c2cccs2)c2ccccc12)NCc1ccccc1	inconclusive: -25.3%	
CCOc1ccc(NC(=O)CN(C)C(=O)c2ccccc2Cc2ccccc2)cc1OCC	inconclusive: 27.6%	
Cc1ccc(S(=O)(=O)Nc2nnc(C(C)(C)C)s2)cc1		inconclusive: 13 µM [activator, partial curve]
CCCC(=O)c1c[nH]c(C(=O)NCCc2ccccn2)c1	inconclusive: 34.7%	
O=[N+]([O-])c1cc([N+](=O)[O-])c2n[nH]c(-c3ccccc3)c2c1	inactive	
COc1ccc(CNC(=O)CSc2nnc(C3CC3)n2C2CC2)cc1	inconclusive: 23.4%	
COc1ccccc1OCC(=O)Nc1cccc(N(C)S(C)(=O)=O)c1		inconclusive: 2.31 µM [activator, partial curve]
CC(=O)c1cccc(NC(=O)C2C3C=CC(C4CC34)C2C(=O)O)c1 (stereo not drawn)	inconclusive: 14.6%	
COc1ccc(C(=O)Nc2nc(CC(=O)NCCc3ccccc3)cs2)cc1	inconclusive	
CCOC(=O)CN1CC23C=CC(O2)C(C(=O)O)C3C1=O (stereo not drawn)		inconclusive: 2.06 µM [falling, full curve]
CCN(CC)c1ccc(/C=N/N2C(=O)c3ccccc3C2=O)cc1		inconclusive: 4.11 µM [falling, full curve]
CC(=O)Oc1ccc2nc(CN3C(=O)c4ccc([N+](=O)[O-])cc4C3=O)oc(=O)c2c1	inconclusive: 0.825%	
CCOC(=O)c1ccccc1NC(=O)CN(c1ccccc1OCC)S(C)(=O)=O		inconclusive: 2.06 µM [activator, single point]
CCN(C(=O)COC(=O)c1cc(S(=O)(=O)N(C)C)ccc1Cl)C1CCS(=O)(=O)C1 (stereo not drawn)		inconclusive: 29.1 µM [activator, single point]
CCc1ccc(S(=O)(=O)Nc2ccc(Cl)cn2)cc1	inconclusive: 3.12%	
Cc1cc(=O)[nH]c2c(C)cc(S(=O)(=O)Nc3ccc(O)cc3)cc12		inconclusive: 3.26 µM [activator, single point]
COc1ccc(OC)c(/C=N/NC(=O)c2cc3c(OC)c(OC)ccc3[nH]2)c1		inconclusive: 2.31 µM [activator, partial curve]
COc1ccc(CC(=O)OCc2nnc(-c3ccccc3)o2)cc1	inconclusive: 2.12%	
CCCCn1c(SCc2ccc(Cl)cc2)nc2c1c(=O)[nH]c(=O)n2C	inconclusive: 65.3%	
O=C(Nc1ccc(Cc2ccncc2)cc1)c1ccc(S(=O)(=O)N2CCOCC2)cc1	inconclusive: 32.8%	

Structure (SMILES)	lipid storage change, negative = inhibition	Potency
O=C(COC(=O)COc1ccccc1)NCc1ccco1		inconclusive: 11.6 µM [activator, partial curve]
CCOC(=O)Cc1csc(NC(=O)CSc2nnc(-c3ccc(F)cc3)o2)n1	inconclusive: -41.1%	
O=C(N/C(=C\c1ccccc1)C(=O)N1CCCCC1)c1ccco1		inconclusive: 32.6 µM [activator, single point]
COc1ccccc1OCC(=O)Nc1cccc(C(=O)N2CCOCC2)c1	inconclusive: 17.9%	
N#Cc1ccccc1NC(=S)NC(=O)c1cccnc1		inconclusive: 6.51 µM [falling, single point]
CCC(CC)NC(=O)CN1CCN(S(=O)(=O)c2cccs2)CC1	inconclusive: -15.7%	
COc1cccc(-c2nc(NCc3ccco3)c3ccccc3n2)c1O	inconclusive: 15.5%	
COc1ccccc1NC(=O)c1ccccc1-c1ccccc1C(=O)O	inconclusive: -100%	
Cc1ccc(-n2c(O)c(/C=N/c3ncn[nH]3)c3ccccc3c2=O)cc1	inconclusive: -10.4%	
CCOC(=O)C(=NC1CCS(=O)(=O)C1)NNc1cc(Cl)ccc1Cl (stereo not drawn)	inconclusive: 26.1%	
Cc1ccc(S(=O)(=O)N2CCN(C(=O)COC(=O)CNC(=O)c3ccc(Cl)cc3Cl)CC2)cc1	inconclusive: 1.63%	
O=C1CCCC2=C1C(c1ccccn1)Nc1ccc(C(=O)c3ccccc3)cc1N2 (stereo not drawn)		inconclusive: 6.51 µM [activator, single point]
CC(=O)c1cc2c(cc1NC(=O)CCc1c(C)nc3ncnn3c1C)OCO2		inconclusive: 0.0651 µM [falling, full curve, poor fit]
CCCCCNC(=O)CC1Nc2c3ccccc3nc(=S)n2C1=O (stereo not drawn)		inconclusive: 0.082 µM [falling, partial curve, poor fit]
Cc1cc2ccccc2n2c(SCC(=O)Nc3ccc(S(=O)(=O)N4CCC(C)CC4)cc3)nnc12	inconclusive: 15.1%	
Oc1cc(O)c2c(c1)O[C@H](c1ccc(O)c(O)c1)[C@H](O)C2	inconclusive: 54.4%	
CCN1CCN(c2oc(COc3ccc(Cl)cc3)nc2C#N)CC1	inconclusive: 22.9%	
CC(=O)Nc1sc(C)c(C)c1C(=O)OCC(=O)N(CC(C)C)c1c(N)n(Cc2ccccc2)c(=O)[nH]c1=O		inconclusive: 0.58 µM [rising, full curve, poor fit]
O=C(Cc1ccccc1)N1CCN(c2ccccc2F)CC1	inconclusive: -33.6%	
O=C(OCC(=O)N1CCCC1)c1ccc(Cl)nc1		inconclusive: 29.1 µM [falling, single point]
Oc1ccccc1C(=S)N1CCCCCC1	inconclusive: -63.3%	
Cc1ccc(OCC(=O)NCCO)cc1C	inconclusive: -33.1%	
O=C(CCc1ccccc1)N1CCCC(Nc2ccc(F)cc2)C1 (stereo not drawn)	inconclusive: 131%	
Cn1cc(C(=O)N/N=C/C(Br)=C\c2ccccc2)ccc1=O		inconclusive: 29.1 µM [falling, single point]

Reformatted field by field: entries from further up
N#Cc1ccccc1NC(=S)NC(=O)c1cccnc1
  Potency: inconclusive: 6.51 µM [falling, single point]
CCC(CC)NC(=O)CN1CCN(S(=O)(=O)c2cccs2)CC1
  lipid storage change, negative = inhibition: inconclusive: -15.7%
COc1cccc(-c2nc(NCc3ccco3)c3ccccc3n2)c1O
  lipid storage change, negative = inhibition: inconclusive: 15.5%
